The values below come from the supplement of paper PMC12819154, “High-throughput peptide-centric local stability assay extends protein–ligand identification to membrane proteins, tissues and bacteria” (Nature Structural & Molecular Biology, 2025).

Sequences of proteins named here, by UniProt entry; tags and fusion partners are left off. A change or cut given only in a name is not applied to a line headed by its entry.
UniProt Q9UJX3, whole entry: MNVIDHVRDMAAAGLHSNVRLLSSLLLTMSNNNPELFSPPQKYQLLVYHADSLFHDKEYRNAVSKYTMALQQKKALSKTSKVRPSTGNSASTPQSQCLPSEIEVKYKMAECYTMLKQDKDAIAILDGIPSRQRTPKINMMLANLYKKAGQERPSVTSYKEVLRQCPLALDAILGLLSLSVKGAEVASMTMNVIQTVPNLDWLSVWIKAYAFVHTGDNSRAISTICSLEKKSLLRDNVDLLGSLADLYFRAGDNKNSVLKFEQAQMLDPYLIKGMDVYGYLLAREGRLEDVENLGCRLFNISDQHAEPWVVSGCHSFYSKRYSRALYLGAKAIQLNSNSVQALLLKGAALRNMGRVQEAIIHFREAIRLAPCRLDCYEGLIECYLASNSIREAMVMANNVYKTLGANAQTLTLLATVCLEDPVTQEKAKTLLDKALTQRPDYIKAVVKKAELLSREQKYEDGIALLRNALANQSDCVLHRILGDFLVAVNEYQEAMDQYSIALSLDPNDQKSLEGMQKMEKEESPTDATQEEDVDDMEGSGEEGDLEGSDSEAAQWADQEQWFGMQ
UniProt Q9UBR2: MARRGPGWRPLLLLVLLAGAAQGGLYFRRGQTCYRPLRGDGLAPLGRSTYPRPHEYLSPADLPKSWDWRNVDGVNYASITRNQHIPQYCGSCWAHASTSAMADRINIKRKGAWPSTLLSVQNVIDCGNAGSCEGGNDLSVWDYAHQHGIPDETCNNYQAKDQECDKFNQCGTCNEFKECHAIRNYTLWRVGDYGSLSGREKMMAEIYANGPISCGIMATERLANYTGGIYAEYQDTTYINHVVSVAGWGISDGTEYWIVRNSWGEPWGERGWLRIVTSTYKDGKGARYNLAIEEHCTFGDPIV
UniProt Q9UHQ7: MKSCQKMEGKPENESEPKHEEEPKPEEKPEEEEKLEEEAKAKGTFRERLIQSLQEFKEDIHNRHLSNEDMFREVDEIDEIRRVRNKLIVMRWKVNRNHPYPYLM
UniProt Q9NZL9, whole entry: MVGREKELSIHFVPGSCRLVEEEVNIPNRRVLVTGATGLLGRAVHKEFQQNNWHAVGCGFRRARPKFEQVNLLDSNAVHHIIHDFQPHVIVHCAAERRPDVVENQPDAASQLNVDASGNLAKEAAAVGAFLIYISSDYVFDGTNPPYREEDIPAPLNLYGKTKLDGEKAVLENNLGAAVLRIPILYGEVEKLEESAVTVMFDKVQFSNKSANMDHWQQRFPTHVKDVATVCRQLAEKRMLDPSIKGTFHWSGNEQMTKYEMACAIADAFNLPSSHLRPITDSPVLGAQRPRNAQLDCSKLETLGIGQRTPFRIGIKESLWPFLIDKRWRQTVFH
UniProt Q9P0S2: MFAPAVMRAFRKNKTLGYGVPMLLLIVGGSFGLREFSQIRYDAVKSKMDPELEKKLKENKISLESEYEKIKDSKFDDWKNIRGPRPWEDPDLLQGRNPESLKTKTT
UniProt Q9UH62: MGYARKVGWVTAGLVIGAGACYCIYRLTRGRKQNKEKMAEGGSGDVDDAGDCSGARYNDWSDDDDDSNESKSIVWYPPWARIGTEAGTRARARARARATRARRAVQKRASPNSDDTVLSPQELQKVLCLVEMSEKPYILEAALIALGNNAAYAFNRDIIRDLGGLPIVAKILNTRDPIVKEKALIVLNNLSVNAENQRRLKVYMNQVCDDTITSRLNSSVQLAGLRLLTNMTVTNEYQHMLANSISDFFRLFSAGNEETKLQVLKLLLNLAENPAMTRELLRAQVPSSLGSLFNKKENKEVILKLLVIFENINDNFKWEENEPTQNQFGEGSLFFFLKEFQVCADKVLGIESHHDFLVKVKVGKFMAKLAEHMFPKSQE
UniProt Q9NZJ4: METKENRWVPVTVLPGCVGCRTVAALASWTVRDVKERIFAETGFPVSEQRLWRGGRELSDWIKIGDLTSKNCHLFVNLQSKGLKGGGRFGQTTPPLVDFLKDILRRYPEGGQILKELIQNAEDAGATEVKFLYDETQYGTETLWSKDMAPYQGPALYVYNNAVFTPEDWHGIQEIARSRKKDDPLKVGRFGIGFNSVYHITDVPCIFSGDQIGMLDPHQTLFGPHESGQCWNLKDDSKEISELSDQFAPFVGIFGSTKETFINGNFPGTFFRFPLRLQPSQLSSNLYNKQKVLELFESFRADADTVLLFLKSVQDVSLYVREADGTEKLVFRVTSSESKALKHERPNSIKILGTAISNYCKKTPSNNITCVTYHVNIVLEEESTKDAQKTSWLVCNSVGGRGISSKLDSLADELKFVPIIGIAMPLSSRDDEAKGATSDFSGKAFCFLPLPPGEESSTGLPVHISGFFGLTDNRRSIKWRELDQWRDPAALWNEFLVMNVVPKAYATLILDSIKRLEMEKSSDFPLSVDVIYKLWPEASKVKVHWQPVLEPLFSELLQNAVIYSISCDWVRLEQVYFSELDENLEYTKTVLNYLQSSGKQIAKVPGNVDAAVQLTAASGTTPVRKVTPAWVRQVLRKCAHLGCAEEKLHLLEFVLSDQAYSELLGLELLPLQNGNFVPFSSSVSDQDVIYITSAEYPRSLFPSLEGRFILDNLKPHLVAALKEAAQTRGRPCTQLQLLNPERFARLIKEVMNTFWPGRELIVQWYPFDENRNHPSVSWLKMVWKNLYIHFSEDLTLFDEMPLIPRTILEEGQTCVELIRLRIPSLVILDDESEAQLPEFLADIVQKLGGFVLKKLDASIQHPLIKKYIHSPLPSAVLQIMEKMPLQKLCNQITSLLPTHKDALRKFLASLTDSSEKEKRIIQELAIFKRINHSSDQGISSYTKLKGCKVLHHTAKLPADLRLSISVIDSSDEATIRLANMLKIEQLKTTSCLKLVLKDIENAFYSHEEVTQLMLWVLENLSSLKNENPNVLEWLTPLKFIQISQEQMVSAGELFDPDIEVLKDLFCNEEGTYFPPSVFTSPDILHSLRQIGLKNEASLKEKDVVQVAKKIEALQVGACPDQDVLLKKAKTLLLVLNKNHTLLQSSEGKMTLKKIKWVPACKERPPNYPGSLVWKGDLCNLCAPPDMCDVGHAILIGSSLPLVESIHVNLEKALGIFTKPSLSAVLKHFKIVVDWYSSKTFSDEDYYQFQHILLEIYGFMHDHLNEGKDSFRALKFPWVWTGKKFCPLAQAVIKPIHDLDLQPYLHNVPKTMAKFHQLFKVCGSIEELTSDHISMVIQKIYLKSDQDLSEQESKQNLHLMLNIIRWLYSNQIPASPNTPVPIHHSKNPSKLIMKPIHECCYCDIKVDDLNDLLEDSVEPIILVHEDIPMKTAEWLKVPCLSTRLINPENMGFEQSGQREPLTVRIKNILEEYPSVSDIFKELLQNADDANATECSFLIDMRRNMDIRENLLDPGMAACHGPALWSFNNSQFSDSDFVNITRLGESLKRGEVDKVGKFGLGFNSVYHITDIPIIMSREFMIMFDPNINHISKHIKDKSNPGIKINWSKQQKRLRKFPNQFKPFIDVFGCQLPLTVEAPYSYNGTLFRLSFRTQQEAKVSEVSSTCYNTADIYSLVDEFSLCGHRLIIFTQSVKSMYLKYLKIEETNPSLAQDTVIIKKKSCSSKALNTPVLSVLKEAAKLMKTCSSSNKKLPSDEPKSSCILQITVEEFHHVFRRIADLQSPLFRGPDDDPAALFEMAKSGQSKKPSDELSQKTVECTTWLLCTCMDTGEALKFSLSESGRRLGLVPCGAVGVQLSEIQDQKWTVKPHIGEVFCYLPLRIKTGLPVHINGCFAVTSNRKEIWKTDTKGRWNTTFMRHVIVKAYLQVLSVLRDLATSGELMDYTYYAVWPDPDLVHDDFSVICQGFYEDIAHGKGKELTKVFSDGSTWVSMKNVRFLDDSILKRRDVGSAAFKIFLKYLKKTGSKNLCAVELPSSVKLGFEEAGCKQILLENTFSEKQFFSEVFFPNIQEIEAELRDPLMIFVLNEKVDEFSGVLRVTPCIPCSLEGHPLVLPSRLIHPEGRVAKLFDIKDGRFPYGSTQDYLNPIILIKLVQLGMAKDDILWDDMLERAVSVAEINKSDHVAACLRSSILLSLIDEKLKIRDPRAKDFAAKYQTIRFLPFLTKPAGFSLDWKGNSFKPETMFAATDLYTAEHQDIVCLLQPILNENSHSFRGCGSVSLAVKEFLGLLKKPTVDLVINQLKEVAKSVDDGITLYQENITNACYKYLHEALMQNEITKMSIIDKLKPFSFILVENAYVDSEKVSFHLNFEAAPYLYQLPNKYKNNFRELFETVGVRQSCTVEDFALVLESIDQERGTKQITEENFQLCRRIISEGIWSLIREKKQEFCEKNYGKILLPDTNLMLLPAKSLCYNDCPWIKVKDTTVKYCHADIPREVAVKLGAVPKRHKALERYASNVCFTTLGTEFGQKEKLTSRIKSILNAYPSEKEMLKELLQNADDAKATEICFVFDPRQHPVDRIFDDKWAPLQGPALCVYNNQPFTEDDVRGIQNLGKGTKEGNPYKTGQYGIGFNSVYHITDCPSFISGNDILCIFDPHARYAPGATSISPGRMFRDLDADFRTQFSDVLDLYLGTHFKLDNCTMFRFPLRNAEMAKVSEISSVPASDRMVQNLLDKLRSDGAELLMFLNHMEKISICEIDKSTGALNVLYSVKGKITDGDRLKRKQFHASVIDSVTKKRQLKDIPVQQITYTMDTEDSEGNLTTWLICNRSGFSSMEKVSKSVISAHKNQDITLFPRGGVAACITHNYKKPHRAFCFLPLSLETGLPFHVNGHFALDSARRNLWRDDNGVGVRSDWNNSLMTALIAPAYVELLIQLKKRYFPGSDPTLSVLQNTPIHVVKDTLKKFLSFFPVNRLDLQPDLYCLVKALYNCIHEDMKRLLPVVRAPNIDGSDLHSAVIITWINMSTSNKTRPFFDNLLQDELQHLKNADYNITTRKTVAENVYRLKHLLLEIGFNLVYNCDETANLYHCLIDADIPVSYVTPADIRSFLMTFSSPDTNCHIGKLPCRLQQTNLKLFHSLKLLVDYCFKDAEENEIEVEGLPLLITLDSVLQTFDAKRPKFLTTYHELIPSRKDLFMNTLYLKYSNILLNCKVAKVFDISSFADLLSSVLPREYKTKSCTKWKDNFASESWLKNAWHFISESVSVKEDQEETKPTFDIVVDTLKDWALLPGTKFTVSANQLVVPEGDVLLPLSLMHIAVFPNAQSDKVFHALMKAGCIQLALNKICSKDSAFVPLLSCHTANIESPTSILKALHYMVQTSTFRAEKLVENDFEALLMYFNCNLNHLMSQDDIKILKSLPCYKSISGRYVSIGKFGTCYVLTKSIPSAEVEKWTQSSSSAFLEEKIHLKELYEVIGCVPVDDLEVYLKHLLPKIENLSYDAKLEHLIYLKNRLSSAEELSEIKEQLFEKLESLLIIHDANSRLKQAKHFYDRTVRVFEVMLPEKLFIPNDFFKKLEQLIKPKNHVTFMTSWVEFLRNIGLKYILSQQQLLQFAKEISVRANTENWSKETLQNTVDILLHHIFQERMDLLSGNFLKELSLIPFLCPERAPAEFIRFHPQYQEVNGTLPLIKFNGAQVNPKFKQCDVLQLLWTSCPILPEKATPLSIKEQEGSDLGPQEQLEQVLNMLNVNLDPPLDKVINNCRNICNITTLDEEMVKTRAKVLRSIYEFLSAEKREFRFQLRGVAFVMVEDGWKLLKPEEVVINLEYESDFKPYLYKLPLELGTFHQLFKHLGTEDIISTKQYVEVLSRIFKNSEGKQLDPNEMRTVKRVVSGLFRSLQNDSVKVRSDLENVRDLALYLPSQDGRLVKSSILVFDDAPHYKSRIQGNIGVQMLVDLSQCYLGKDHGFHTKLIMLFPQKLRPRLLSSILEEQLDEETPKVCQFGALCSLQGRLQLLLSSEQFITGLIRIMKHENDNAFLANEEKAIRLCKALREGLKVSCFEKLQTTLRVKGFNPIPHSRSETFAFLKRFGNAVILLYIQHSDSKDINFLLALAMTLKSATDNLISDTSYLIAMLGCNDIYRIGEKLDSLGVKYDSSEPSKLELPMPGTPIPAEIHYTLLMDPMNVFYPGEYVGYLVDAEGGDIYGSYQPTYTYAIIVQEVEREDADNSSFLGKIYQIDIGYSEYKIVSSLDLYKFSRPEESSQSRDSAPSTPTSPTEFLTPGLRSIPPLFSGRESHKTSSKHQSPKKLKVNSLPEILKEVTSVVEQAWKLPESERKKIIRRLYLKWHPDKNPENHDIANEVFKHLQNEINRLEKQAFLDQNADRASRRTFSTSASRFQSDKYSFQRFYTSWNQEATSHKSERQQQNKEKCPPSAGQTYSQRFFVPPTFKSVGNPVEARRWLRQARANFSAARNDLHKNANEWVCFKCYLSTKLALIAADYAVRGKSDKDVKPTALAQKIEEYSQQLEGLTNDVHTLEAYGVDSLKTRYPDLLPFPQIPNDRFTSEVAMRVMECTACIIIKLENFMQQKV
UniProt Q9UBK9, whole entry: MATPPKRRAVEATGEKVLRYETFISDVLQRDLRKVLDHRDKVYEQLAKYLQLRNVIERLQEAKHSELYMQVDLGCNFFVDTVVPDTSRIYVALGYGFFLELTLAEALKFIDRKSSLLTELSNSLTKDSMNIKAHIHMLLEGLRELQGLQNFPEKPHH

Some of the results follow. Most values lie at the level of the controls, where differences are scatter.

Compound in this experiment: CN[C@@H]1C[C@H]2O[C@@](C)([C@@H]1OC)n1c3ccccc3c3c4c(c5c6ccccc6n2c5c31)C(=O)NC4 [staurosporine]
Briefly: log2 fold change of tryptic peptide abundance, ligand vs vehicle (limited proteolysis) (log2 ratio); higher = more trypsin-susceptible (destabilized). The conditions noted are these: ligand concentration: 20 uM; sample: K562 cleared lysate; digestion: 4 min, 22 C (HT-PELSA RT4min, Orbitrap Astral).
For the target “PRKAG2 (peptide sequence: VVDIYSKFDVINLAAEK, peptide start residue: 237) (UniProt Q9UGJ0)”, the log2 fold change was -0.478.

On to “CHORDC1 (peptide sequence: KVVPCRHDWHQTGGEVTISVYAK, peptide start residue: 226) (UniProt Q9UHD1)”, for which the log2 fold change was -0.328.

As to “UniProt Q9P2B7 (peptide sequence: VLHDTMDLNHLLK, peptide start residue: 339)”, the log2 fold change came out at 0.569.

In the case of “VPS51 (peptide sequence: ISATLQDRHER, peptide start residue: 153) (UniProt Q9UID3)”, the log2 fold change turned out to be 0.218.

Regarding “ANAPC7 (peptide sequence: DMAAAGLHSNVR, peptide start residue: 9) (UniProt Q9UJX3)”, the log2 fold change stood at 0.684.

For “ANAPC5 (peptide sequence: TVEDADMELTSRDEGERK, peptide start residue: 169) (UniProt Q9UJX4)”, the log2 fold change stood at 0.506.

“CTSZ (peptide sequence: NVDGVNYASITR, peptide start residue: 70) (UniProt Q9UBR2)”: the log2 fold change was 0.36.

Turning to “MED13 (peptide sequence: VWQECNMNR, peptide start residue: 379) (UniProt Q9UHV7)”, the log2 fold change came out at 0.233.

Take “SUCLA2 (peptide sequence: GKGTFESGLK, peptide start residue: 107) (UniProt Q9P2R7)”: the log2 fold change is 0.252.

As for “SHPK (peptide sequence: DTHLTITPTVLGER, peptide start residue: 363) (UniProt Q9UHJ6)”, the log2 fold change was 0.288.

Turning to “EIF2B4 (peptide sequence: GEHVALANWQNHASLR, peptide start residue: 468) (UniProt Q9UI10)”, the log2 fold change amounted to 0.414.

As to “THYN1 (peptide sequence: NMVLFTR, peptide start residue: 194) (UniProt Q9P016)”, the log2 fold change came out at 0.416.

Turning to “VTI1B (peptide sequence: YGIYAVENEHMNR, peptide start residue: 112) (UniProt Q9UEU0)”, the log2 fold change was -0.243.

Turning to “HMGXB4 (peptide sequence: DEQGALLLGHELQSFLK, peptide start residue: 230) (UniProt Q9UGU5)”, the log2 fold change was -0.155.

For the target “UniProt Q9P2K6 (peptide sequence: LVLDFINAGGAR, peptide start residue: 64)”, the log2 fold change was 0.23.

On to “UniProt Q9UGP5 (peptide sequence: QKIHADASSK, peptide start residue: 14)”, for which the log2 fold change was found to be 0.769.

With “TCEAL9 (peptide sequence: HLSNEDMFR, peptide start residue: 64) (UniProt Q9UHQ7)”, the log2 fold change is -0.107.

“MAT2B (peptide sequence: ESLWPFLIDKR, peptide start residue: 317) (UniProt Q9NZL9)”: the log2 fold change is -0.63.

Consider “UBA2 (peptide sequence: ESVLQFYPK, peptide start residue: 78) (UniProt Q9UBT2)”, for which the log2 fold change stood at 0.135.

On to “COX16 (peptide sequence: GPRPWEDPDLLQGR, peptide start residue: 83) (UniProt Q9P0S2)”, for which the log2 fold change was -0.291.

Regarding “ARHGEF12 (peptide sequence: SVQEDWQHFPR, peptide start residue: 1273) (UniProt Q9NZN5)”, the log2 fold change came out at 0.304.

Turning to “ARMCX3 (peptide sequence: ILNTRDPIVK, peptide start residue: 171) (UniProt Q9UH62)”, the log2 fold change is 1.02.

“BCCIP (peptide sequence: TFVEAGKNNSK, peptide start residue: 225) (UniProt Q9P287)”: the log2 fold change amounted to 0.223.

As to “ANKFY1 (peptide sequence: HGCDATCWGPGPGGCLQTLLHR, peptide start residue: 710) (UniProt Q9P2R3)”, the log2 fold change is -0.512.

Take “UniProt Q9NZM5 (peptide sequence: VDLILENTSKVPAPK, peptide start residue: 118)”: the log2 fold change is -0.18.

In the case of “FTSJ1 (peptide sequence: AVDLCAAPGSWSQVLSQK, peptide start residue: 45) (UniProt Q9UET6)”, the log2 fold change was 0.362.

For “SACS (peptide sequence: NADYNITTR, peptide start residue: 3040) (UniProt Q9NZJ4)”, the log2 fold change stood at 0.488.

For the target “UXT (peptide sequence: VLRYETFISDVLQR, peptide start residue: 17) (UniProt Q9UBK9)”, the log2 fold change worked out at 0.31.
